PubChem BioAssay AID1508597, Cure First – 2020
This is an unselected part of the about 2,100 reagents, in one setting of the screen. 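Calls flag viability under 80% in either arm, not effects specific to rucaparib; the reference for percent is not stated.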 A number with no mark means an inactive call. Some reagents were tested in more than one well and are listed for each. Reagent sequences are not shown. The record does not give: the 100% reference.

Assay: 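Survival screen with siRNA in ovarian cancer cells derived from patients, with or without rucaparib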 (primary screen)
System: human ovarian carcinoma lines grown from tumours: OCI-P5x (papillary serous) and OCI-C5x (clear cell)
Reagent: siRNA pool against human genes, 1.25 pmol siRNA per well
Time to read-out: 72 h or 96 h, depending on the cell culture
Conditions: rucaparib 20 µM (about IC30) or vehicle, present until read-out
Rucaparib or vehicle: Rucaparib
Cell line: OCI-C5x (clear cell)
Detection: 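ATP luminescence measured at 72 or 96 h according to the culture, then normalised and expressed as percent viability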
Scale: viability, normalised: higher = more viable cells remaining
Hit rule: 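a well counts as a hit if its normalised viability is under 80 percent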
Meaning of the calls: active = viability under 80%; inactive = viability 80% or more

| target gene | technical replicate | viability, normalised (%) |
| --- | --- | --- |
| KDM3A | 1 | 51.4 (active) |
| KDM3A | 2 | 42.8 (active) |
| KDM3A | 3 | 45.9 (active) |
| GRN | 1 | 60.4 (active) |
| GRN | 2 | 50.3 (active) |
| GRN | 3 | 50.4 (active) |
| ACTB | 1 | 40.6 (active) |
| ACTB | 2 | 46.8 (active) |
| ACTB | 3 | 27.4 (active) |
| PGK1 | 1 | 45.7 (active) |
| PGK1 | 2 | 48.9 (active) |
| PGK1 | 3 | 43.6 (active) |
| BRCA1 | 1 | 47.6 (active) |
| BRCA1 | 1 | 50.6 (active) |
| BRCA1 | 2 | 45.2 (active) |
| BRCA1 | 2 | 41.3 (active) |
| BRCA1 | 3 | 38.9 (active) |
| BRCA1 | 3 | 36.2 (active) |
| NECAB3 | 1 | 66.7 (active) |
| NECAB3 | 2 | 76.1 (active) |
| NECAB3 | 3 | 74.9 (active) |
| MAU2 | 1 | 47.7 (active) |
| MAU2 | 2 | 35.1 (active) |
| MAU2 | 3 | 57.4 (active) |
| CHEK1 | 1 | 48.8 (active) |
| CHEK1 | 1 | 41.9 (active) |
| CHEK1 | 2 | 48.5 (active) |
| CHEK1 | 2 | 48.3 (active) |
| CHEK1 | 3 | 46.5 (active) |
| CHEK1 | 3 | 49.1 (active) |
| MED26 | 1 | 21.7 (active) |
| MED26 | 2 | 19.8 (active) |
| MED26 | 3 | 28.9 (active) |
| RUVBL1 | 1 | 43.9 (active) |
| RUVBL1 | 2 | 55.6 (active) |
| RUVBL1 | 3 | 39.5 (active) |
| ITIH4 | 1 | 45.7 (active) |
| ITIH4 | 2 | 47.3 (active) |
| ITIH4 | 3 | 37.5 (active) |
| CDK8 | 1 | 59.3 (active) |
| CDK8 | 2 | 33.4 (active) |
| CDK8 | 3 | 58.5 (active) |
| MPHOSPH8 | 1 | 40 (active) |
| MPHOSPH8 | 2 | 48.6 (active) |
| MPHOSPH8 | 3 | 46.6 (active) |
| PHF8 | 1 | 65.8 (active) |
| PHF8 | 2 | 44.2 (active) |
| PHF8 | 3 | 44.2 (active) |
| DEAF1 | 1 | 54.1 (active) |
| DEAF1 | 2 | 41.3 (active) |
| DEAF1 | 3 | 48.7 (active) |
| EP300 | 1 | 27.1 (active) |
| EP300 | 1 | 68 (active) |
| EP300 | 2 | 80.4 |
| EP300 | 2 | 20.6 (active) |
| EP300 | 3 | 30.2 (active) |
| EP300 | 3 | 45.3 (active) |

9 of these entries, set out differently:
{"target gene":"PHF8","technical replicate":"2","viability, normalised (%)":"44.2 (active)"}
{"target gene":"PHF8","technical replicate":"3","viability, normalised (%)":"44.2 (active)"}
{"target gene":"DEAF1","technical replicate":"1","viability, normalised (%)":"54.1 (active)"}
{"target gene":"DEAF1","technical replicate":"2","viability, normalised (%)":"41.3 (active)"}
{"target gene":"DEAF1","technical replicate":"3","viability, normalised (%)":"48.7 (active)"}
{"target gene":"EP300","technical replicate":"1","viability, normalised (%)":"27.1 (active)"}
{"target gene":"EP300","technical replicate":"1","viability, normalised (%)":"68 (active)"}
{"target gene":"EP300","technical replicate":"2","viability, normalised (%)":80.4}
{"target gene":"EP300","technical replicate":"2","viability, normalised (%)":"20.6 (active)"}
